According to paper PMC6264466, “HPLC Determination of Antilipoxygenase Activity of a Water Infusion of Ligustrum vulgare L. Leaves and Some of Its Constituents” (Molecules, 2011):

Test system: T1, 8-LOX
T1 construct: gene Alox15b; native, male rat lung cytosol; ammonium sulphate, Sephadex G-150 and Phenyl-Sepharose CL-4B; LOX activities not separated
Experiment: HPLC of 8-HETE formed from arachidonic acid
Type: biochemical, Rattus norvegicus
Details: Tris-HCl pH 7.4, ambient temperature, 30 min, partially purified LOX mixture

SMILES	% inhibition at higher concentration (inhibitor at higher concentration (series 232.36-692.37 ug/mL)) [%]	% inhibition (inhibitor 33.75-66.42 ug/mL, exact concentration for this value not stated)
C[C@@H]1O[C@@H](O[C@@H]2[C@@H](O)[C@H](OCCc3ccc(O)c(O)c3)O[C@H](CO[C@@H]3O[C@H](CO)[C@@H](O)[C@H](O)[C@H]3O)[C@H]2OC(=O)/C=C/c2ccc(O)c(O)c2)[C@H](O)[C@H](O)[C@H]1O [echinacoside]	28.7	–
C/C=C1/[C@H](O[C@@H]2O[C@H](CO)[C@@H](O)[C@H](O)[C@H]2O)OC=C(C(=O)OC)[C@H]1CC(=O)OCCc1ccc(O)c(O)c1 [oleuropein]	–	~ 40%
